# Measured values published in the supplement of paper PMC9015667.
# Structures can show the parent of a compound that is named as a salt. This is one part of the list. Many values rest on one well or one pass, so single values are uncertain.
# Experiments:
# Assay in all cases: reduction in cell viability relative to untreated/vehicle; higher = more growth inhibition
# Details in all cases: 200 nM; 72 h
# [1] = tested on: M229P (parental melanoma line)
# [2] = tested on: M229R (matched melanoma line resistant to BRAF inhibitors)
# [3] = tested on: M238P (parental melanoma line)
# [4] = tested on: M238R (matched melanoma line resistant to BRAF inhibitors)
# [5] = tested on: M249P (parental melanoma line)
# [6] = tested on: M249R (matched melanoma line resistant to BRAF inhibitors)
# [7] = tested on: UACC62P (parental melanoma line)
# [8] = tested on: UACC62R (matched melanoma line resistant to BRAF inhibitors)
SMILES,reduction in cell viability [1] [%],reduction in cell viability [2] [%],reduction in cell viability [3] [%],reduction in cell viability [4] [%],reduction in cell viability [5] [%],reduction in cell viability [6] [%],reduction in cell viability [7] [%],reduction in cell viability [8] [%]
CN(C)CCOc1ccc(-c2nc(-c3ccncc3)c(-c3ccc4c(c3)CC/C4=N\O)[nH]2)cc1,14.4,< 0,24.4,< 0,43.7,< 0,59.6,< 0
CC(C)c1ccc2c(c1)c(SC(C)(C)C)c(CC(C)(C)C(=O)O)n2Cc1ccc(Cl)cc1,< 0,< 0,< 0,< 0,< 0,< 0,< 0,< 0
CC1=C(C(=O)Nc2cc3cn[nH]c3cc2F)C(c2ccc(Cl)cc2F)N=C(c2ccnc(Cl)c2)N1 (centres undefined),< 0,8.55,< 0,< 0,< 0,< 0,< 0,< 0
COc1ccc(C2CNC(=O)C2)cc1OC1CCCC1 (centres undefined) [Rolipram],< 0,< 0,< 0,< 0,< 0,< 0,< 0,
CNNCc1ccc(C(=O)NC(C)C)cc1 [Procarbazine hydrochloride],< 0,< 0,< 0,< 0,< 0,< 0,< 0,4.73
COc1cc(C)c(/C=C/C(C)=C/C=C/C(C)=C/C(=O)O)c(C)c1C [Acitretin],< 0,< 0,< 0,< 0,13.6,< 0,< 0,< 0
C[C@@H](O)[C@H]1C(=O)N2C(C(=O)O)=C(S[C@@H]3CN[C@H](CNS(N)(=O)=O)C3)[C@H](C)[C@H]12 [Doripenem],< 0,< 0,< 0,< 0,< 0,< 0,< 0,< 0
O=S(=O)(O)CCS [Mesna],< 0,< 0,< 0,< 0,< 0,< 0,< 0,< 0
CN(C)/N=N/c1[nH]cnc1C(N)=O [Dacarbazine],< 0,< 0,< 0,< 0,< 0,0.95,< 0,< 0
N[C@@H](CSC(c1ccccc1)(c1ccccc1)c1ccccc1)C(=O)O [S-Trityl-L-cysteine],< 0,< 0,< 0,< 0,< 0,< 0,< 0,< 0
COc1cc(NC(=O)c2ccc(-c3ccc(Cl)cc3)o2)cc(OC)c1,< 0,< 0,< 0,< 0,< 0,< 0,< 0,< 0
C=C(C)[C@@H]1CC[C@]2(C(=O)O)CC[C@]3(C)[C@H](CC[C@@H]4[C@@]5(C)CC[C@H](O)C(C)(C)[C@@H]5CC[C@]43C)[C@@H]12 [Betulinic acid],< 0,< 0,< 0,< 0,< 0,< 0,< 0,< 0
CS(=O)(=O)N(Cc1ccco1)C[C@@H](O)Cn1c2ccccc2c2ccccc21,< 0,< 0,< 0,< 0,< 0,11.7,< 0,< 0
CC(=O)O[C@H]1C(=O)[C@@]2(C)[C@H]([C@H](OC(=O)c3ccccc3)[C@]3(O)C[C@H](OC(=O)[C@H](O)[C@@H](NC(=O)c4ccccc4)c4ccccc4)C(C)=C1C3(C)C)[C@]1(OC(C)=O)CO[C@@H]1C[C@@H]2O [Paclitaxel],38.5,57.4,88.9,72.6,57.9,54.4,69.8,91.1
COc1ccc([C@]2(C#N)CC[C@@H](C(=O)O)CC2)cc1OC1CCCC1 [Cilomilast],< 0,< 0,< 0,< 0,< 0,< 0,< 0,< 0
O=C(/C=C/c1ccc(CN(CCO)CCc2c[nH]c3ccccc23)cc1)NO [Dacinostat],85.6,73.8,82.1,79.5,77.8,87.4,90.8,87.3
COc1cc2ncn(-c3cc(OCc4ccccc4C(F)(F)F)c(C(N)=O)s3)c2cc1OC,22.1,17.5,25.7,1,6.44,17.2,31.6,38.6
CC(=O)Oc1cc2c(s1)CCN(C(C(=O)C1CC1)c1ccccc1F)C2 (centres undefined) [Prasugrel hydrochloride],< 0,< 0,< 0,< 0,< 0,< 0,< 0,< 0
Nc1ccn([C@@H]2O[C@H](CO)[C@@H](O)[C@H]2O)c(=O)n1 [Cytidine],4.06,0.79,< 0,< 0,< 0,< 0,< 0,< 0
NC12CC3CC(CC(C3)C1)C2 [Amantadine hydrochloride],< 0,< 0,< 0,< 0,< 0,10.5,< 0,< 0

SMILES,reduction in cell viability [1] [%],reduction in cell viability [2] [%],reduction in cell viability [3] [%],reduction in cell viability [4] [%],reduction in cell viability [5] [%],reduction in cell viability [6] [%],reduction in cell viability [7] [%],reduction in cell viability [8] [%]
C[C@@H]1CCO[C@H]2Cn3cc(C(=O)NCc4ccc(F)cc4F)c(=O)c(O)c3C(=O)N12 [Dolutegravir],< 0,< 0,< 0,< 0,< 0,< 0,< 0,< 0
CC1(C)[C@H](C(=O)O)N2C(=O)C[C@H]2S1(=O)=O [Sulbactam],< 0,< 0,< 0,< 0,< 0,< 0,< 0,< 0
Cc1cnc(-c2cnc(NCCNc3ccc(C#N)cn3)nc2-c2ccc(Cl)cc2Cl)[nH]1,< 0,< 0,< 0,< 0,< 0,< 0,< 0,< 0
C[C@H](NC(=O)/C(C#N)=C/c1cccc(Br)n1)c1ccccc1,< 0,< 0,< 0,< 0,< 0,< 0,< 0,< 0
"CC[C@H](Nc1ncnc2[nH]cnc12)c1nc2cccc(F)c2c(=O)n1-c1ccccc1 [CAL-101 (Idelalisib, GS-1101)]",< 0,< 0,< 0,< 0,< 0,< 0,5.5,< 0
CCN1CCC[C@H]1CNC(=O)c1cc(S(N)(=O)=O)ccc1OC [Levosulpiride],< 0,< 0,< 0,< 0,< 0,< 0,< 0,< 0
Clc1ccc2ncc(-c3cccc(NC4CNC4)n3)n2c1,< 0,< 0,< 0,< 0,< 0,< 0,< 0,< 0
Cc1cc2c(cc1C1(c3ccc(C(=O)O)cn3)CC1)C(C)(C)CCC2(C)C,< 0,< 0,< 0,< 0,< 0,< 0,< 0,< 0
COC(=O)C1=C(C)NC(C)=C(C(=O)OCCCN2CCC(c3ccccc3)(c3ccccc3)CC2)[C@H]1c1cccc([N+](=O)[O-])c1 [Niguldipine],< 0,1.09,< 0,< 0,< 0,< 0,< 0,< 0
C[C@@H](CN1CC(=O)NC(=O)C1)N1CC(=O)NC(=O)C1 [Dexrazoxane hydrochloride],< 0,< 0,< 0,< 0,< 0,< 0,< 0,< 0
C[C@H]1COC2(CCN(c3nc(=O)c4cc(C(F)(F)F)cc([N+](=O)[O-])c4s3)CC2)O1,< 0,< 0,< 0,< 0,< 0,< 0,< 0,< 0
COc1ccc2[nH]c([S@@+]([O-])Cc3ncc(C)c(OC)c3C)nc2c1 [Esomeprazole magnesium],< 0,< 0,< 0,< 0,< 0,< 0,< 0,3.04
CCc1ccc(C(=O)Nc2cc(CN3CCN(C)CC3)cc(C(F)(F)F)c2)cc1C#Cc1cnc2ccnn2c1,< 0,< 0,< 0,< 0,< 0,< 0,< 0,< 0
S=C(NCc1ccc2c(c1)OCO2)N1CCN(c2ncnc3c2oc2ccccc23)CC1 [Amuvatinib],< 0,< 0,< 0,< 0,< 0,< 0,18.1,16.2
Cc1ccccc1C(OCCN(C)C)c1ccccc1 (centres undefined) [Orphenadrine hydrochloride],< 0,< 0,< 0,< 0,< 0,< 0,< 0,< 0
Cc1cccc2c1CC[C@H](CN1CCC(c3c(Cl)cccc3Cl)CC1)C[C@@H]2O,< 0,< 0,< 0,< 0,< 0,< 0,< 0,< 0
Clc1ccc2nsnc2c1NC1=NCCN1 [Tizanidine hydrochloride],< 0,< 0,< 0,< 0,< 0,< 0,12.1,< 0
Clc1ccc(COC(Cn2ccnc2)c2ccc(Cl)cc2Cl)c(Cl)c1 (centres undefined) [Miconazole nitrate],< 0,< 0,< 0,< 0,< 0,< 0,< 0,< 0
Clc1ccc2c(c1)C(N1CCNCC1)=Nc1ccccc1O2 [Amoxapine],< 0,< 0,< 0,< 0,< 0,8.04,4.16,< 0
Oc1cc2c(cc1O)[C@@H]1c3ccc(O)c(O)c3OC[C@]1(O)C2 [Hematoxylin],< 0,< 0,< 0,< 0,< 0,< 0,< 0,< 0

# A few values from the entries so far:
# Under reduction in cell viability [1] [%], COc1ccc([C@]2(C#N)CC[C@@H](C(=O)O)CC2)cc1OC1CCCC1 [Cilomilast] is entered as < 0
# Under reduction in cell viability [8] [%], Nc1ccn([C@@H]2O[C@H](CO)[C@@H](O)[C@H]2O)c(=O)n1 [Cytidine] is entered as < 0
